test system: Leishmania infantum MHOM/MA(BE)/67/ITMAP263 intracellular amastigotes; conditions: selectivity index vs PMM

Row | Structure (SMILES) | SI (vs PMM)
1 | COc1ccc(OC)c(S(=O)(=O)N(Cc2ccccc2)C2CCCN(C(C)=O)C2)c1 (stereo not drawn) [DNDI0003367307] | 1
2 | COc1ccc(OC)c(S(=O)(=O)N(CCn2nc(C)cc2C)Cc2ccccc2)c1 [DNDI0003367308] | 10
3 | COc1ccc(S(=O)(=O)N(Cc2ccccc2)Cc2ccccc2)cc1 [DNDI0003367309] | 1
4 | COc1ccc(C(=O)O)cc1S(=O)(=O)N(Cc1ccccc1)Cc1ccccc1 [DNDI0003368287] | 1
5 | O=S(=O)(c1cc(F)ccc1F)N(CCO)Cc1ccccc1 [DNDI0003368289] | 1
6 | CN(C)CCN(Cc1ccccc1)S(=O)(=O)c1ccc(N)cc1 [DNDI0003368290] | 1
7 | CN(C)CCN(Cc1ccccc1)S(=O)(=O)c1ccc(N2C(=O)CCC2=O)cc1 [DNDI0003368291] | 1
8 | O=S1(=O)c2cc(F)ccc2OCCN1Cc1ccccc1 [DNDI0003368292] | 1
9 | CN(C)CCN(Cc1ccccc1)S(=O)(=O)c1ccc(NC(=O)CCCO)cc1 [DNDI0003368293] | 1
10 | COc1ccc(OC)c(S(=O)(=O)N(CCN2CCOCC2)Cc2ccccc2)c1 [DNDI0003368294] | 7
11 | COc1ccc(OC)c(S(=O)(=O)N(Cc2ccc(F)cc2)Cc2nc(C)no2)c1 [DNDI0003368295] | 8
12 | COc1ccc(C(=O)N2CCOCC2)cc1S(=O)(=O)N(Cc1ccccc1)Cc1ccccc1 [DNDI0003368296] | 99
13 | COc1ccc(C(=O)N2CCCC2)cc1S(=O)(=O)N(Cc1ccccc1)Cc1ccccc1 [DNDI0003368297] | 66
14 | CNC(=O)c1ccc(OC)c(S(=O)(=O)N(Cc2ccccc2)Cc2ccccc2)c1 [DNDI0003368298] | 72
15 | COc1ncccc1S(=O)(=O)N(Cc1ccccc1)Cc1ccccc1 [DNDI0003368299] | 100
16 | COc1ccc(OC)c(S(=O)(=O)N(Cc2ccc(F)cc2)Cc2ccccn2)c1 [DNDI0003368394] | 66
17 | COCCN(Cc1ccc(F)cc1)S(=O)(=O)c1cc(C#N)ccc1OC [DNDI0003368395] | 7
18 | CCCCOc1ncccc1S(=O)(=O)NCc1ccc(F)cc1 [DNDI0003368396] | 7
19 | O=S(=O)(NC(CO)Cc1ccccc1)c1cc(F)ccc1F (stereo not drawn) [DNDI0003368459] | 1
20 | O=S1(=O)NC(Cc2ccccc2)COc2ccc(F)cc21 (stereo not drawn) [DNDI0003368460] | 1

Row | Structure (SMILES) | SI (vs PMM)
21 | COC(=O)C(Cc1ccccc1)NS(=O)(=O)c1ccccc1Br (stereo not drawn) [DNDI0003369003] | 1
22 | COC(=O)[C@H](CO)NS(=O)(=O)c1cc(Cl)ccc1OC [DNDI0003369004] | 1
23 | CCOCCOc1ncccc1S(=O)(=O)NCc1ccc(F)cc1 [DNDI0003369119] | 2
24 | O=S(=O)(NCc1ccc(F)cc1)c1cccnc1OCc1ccccc1 [DNDI0003369120] | 4
25 | O=S(=O)(NCc1ccc(F)cc1)c1cccnc1NCCN1CCOCC1 [DNDI0003369121] | 1
26 | COc1ncc(Br)cc1S(=O)(=O)N(Cc1ccc(F)cc1)Cc1ccc(F)cc1 [DNDI0003369122] | 4
27 | COc1ncc(C#N)cc1S(=O)(=O)N(Cc1ccc(F)cc1)Cc1ccc(F)cc1 [DNDI0003369123] | 8
28 | O=S(=O)(c1cc(F)ccc1F)N(Cc1ccccc1)C(CO)CO [DNDI0003369448] | 1
29 | O=S(=O)(NC(CO)Cc1ccccc1)c1ccccc1Br (stereo not drawn) [DNDI0003369449] | 1
30 | O=S(=O)(c1ccccc1Br)N(Cc1ccccc1)C(CO)Cc1ccccc1 (stereo not drawn) [DNDI0003369450] | 1
31 | COCC1COc2ccc(F)cc2S(=O)(=O)N1Cc1ccccc1 (stereo not drawn) [DNDI0003369451] | 1
32 | O=S1(=O)c2ccccc2OCC(Cc2ccccc2)N1Cc1ccccc1 (stereo not drawn) [DNDI0003370081] | 1
33 | COc1ccc(C#N)cc1S(=O)(=O)N(Cc1ccc(F)cc1)Cc1ccccn1 [DNDI0003370083] | 20
34 | COc1ncccc1S(=O)(=O)N(Cc1ccc(F)cc1)Cc1ccccn1 [DNDI0003370084] | 9
35 | COc1ccc(OC)c(S(=O)(=O)N(Cc2ccc(F)cc2)c2ccc(F)cn2)c1 [DNDI0003370085] | 2
36 | O=C1c2ccccc2S(=O)(=O)N(Cc2ccccc2)C1Cc1ccccc1 (stereo not drawn) [DNDI0003370098] | 5
37 | COc1ccc(CN2CCCC2)cc1S(=O)(=O)N(Cc1ccc(F)cc1)Cc1ccc(F)cc1 [DNDI0003370114] | 3
38 | COc1ccc(OC)c(S(=O)(=O)N(Cc2ncccn2)Cc2ncccn2)c1 [DNDI0003370115] | 1
39 | COc1ccc(Cl)cc1S(=O)(=O)N(Cc1ccccc1)C(Cc1ccccc1)C(N)=O (stereo not drawn) [DNDI0003370116] | 7
40 | COc1ccc(OC)c(S(=O)(=O)N(Cc2ccc(F)cc2)Cc2ncccn2)c1 [DNDI0003370419] | 5

Row | Structure (SMILES) | SI (vs PMM)
41 | COc1ccc(OC)c(S(=O)(=O)N(Cc2ccc(F)cc2)Cc2oc(C)nc2C)c1 [DNDI0003370420] | 27
42 | COc1ccc(C#N)cc1S(=O)(=O)N(Cc1ccc(F)cc1)Cc1oc(C)nc1C [DNDI0003370421] | 8
43 | COc1ccc(OC)c(S(=O)(=O)N2CCC(c3ccccc3)CC2)c1 [DNDI0003370422] | 1
44 | COc1ccc(Cl)cc1S(=O)(=O)N(CC(=O)c1ccc(F)cc1)Cc1ccccc1 [DNDI0003371155] | 1
45 | C=C(c1ccc(F)cc1)N(Cc1ccccc1)S(=O)(=O)c1cc(Cl)ccc1O [DNDI0003371156] | 1
46 | O=C(CN(Cc1ccccc1)S(=O)(=O)c1cc(F)ccc1F)c1ccc(F)cc1 [DNDI0003371157] | 1
47 | O=S(=O)(c1cc(F)ccc1F)N(Cc1ccc(F)cc1)Cc1ccc(F)cc1 [DNDI0003371158] | 1
48 | O=S(=O)(c1cc(F)ccc1F)N(Cc1ccccc1)CC(O)c1ccc(F)cc1 (stereo not drawn) [DNDI0003371159] | 2
49 | O=S1(=O)c2cc(F)ccc2OC(c2ccc(F)cc2)CN1Cc1ccccc1 (stereo not drawn) [DNDI0003371160] | 3
50 | CN(C)CCOc1ccc(F)cc1S(=O)(=O)N(Cc1ccc(F)cc1)Cc1ccc(F)cc1 [DNDI0003371161] | 4
51 | CNc1ncccc1S(=O)(=O)N(Cc1ccc(F)cc1)Cc1ccc(F)cc1 [DNDI0003371162] | 18
52 | Nc1ncccc1S(=O)(=O)N(Cc1ccc(F)cc1)Cc1ccc(F)cc1 [DNDI0003371163] | 1
53 | COc1ccc(S(C)(=O)=O)cc1S(=O)(=O)N(Cc1ccc(F)cc1)Cc1ccc(F)cc1 [DNDI0003371164] | 50
54 | O=c1[nH]cccc1S(=O)(=O)N(Cc1ccc(F)cc1)Cc1ccc(F)cc1 [DNDI0003371165] | 1
55 | [2H]C([2H])([2H])Oc1ncccc1S(=O)(=O)N(Cc1ccc(F)cc1)Cc1ccc(F)cc1 [DNDI0003371166] | 2
56 | O=S(=O)(c1cccnc1OC(F)F)N(Cc1ccc(F)cc1)Cc1ccc(F)cc1 [DNDI0003371167] | 7
57 | Cn1cccc(S(=O)(=O)N(Cc2ccc(F)cc2)Cc2ccc(F)cc2)c1=O [DNDI0003371168] | 3
58 | COc1ncccc1S(=O)(=O)N(Cc1ccc(F)cc1)Cc1ccc(F)cc1 [DNDI0003371169] | 5
59 | COc1ccc(OC)c(S(=O)(=O)N(Cc2ccc(F)cc2)c2ccc(F)cc2)c1 [DNDI0003371170] | 6
60 | COc1ccc(C#N)cc1S(=O)(=O)N(Cc1ccc(F)cc1)Cc1ccc(C#N)cc1 [DNDI0003371171] | 2
